The text below walks through data of publication PMC3988174.

Test [1] deals with atToc132 A- plus G-domains bait (Arabidopsis thaliana) (UniProt Q9SLF3). Nature of the test: two-hybrid; split-ubiquitin membrane-based yeast two-hybrid library screen in S. cerevisiae NMY51; bait fused to Cub-LexA-VP16 (pBT3-STE), Arabidopsis seedling cDNA library preys fused to NubG; selection on SD-LWHA with 3-AT; hits re-streaked, retransformed with the same bait, X-Gal filter assay.

Test [2] shares this target. Nature of the test: two-hybrid; pairwise split-ubiquitin yeast two-hybrid of isolated NubG-preys with Toc159G, Toc132G or Toc132AG bait in NMY51; growth on SD-LWHA (3-AT) and quantitative β-Gal assay, activity relative to a reference bait set to 100%.

These are yes or no findings as the source states them, for the method shown. Some results given as binding are weak or reduced against the parent protein; the word gives no strength.

B1: Oxygen-evolving enhancer protein 3-2 (protein, UniProt Q41932 1-230)
chain: MAQAVTSMAGLRGASQAVLEGSLQINGSNRLNISRVSVGSQRTGLVIRAQQNVSVPESSRRSVIGLVAAGLAGGSFVKAVFAEAIPIKVGGPPLPSGGLPGTDNSDQARDFSLALKDRFYIQPLSPTEAAARAKDSAKEIINVKSFIDKKAWPYVQNDLRLRASYLRYDLNTVISAKPKEEKQSLKDLTAKLFQTIDNLDYAARSKSSPDAEKYYSETVSSLNNVLAKLG
As for B1, in test [1], the binding entry was “binds”.

B2: 5′-Adenylylsulfate reductase 2 (protein, UniProt P92981 1-454)
chain: MALAVTSSSTAISGSSFSRSGASSESKALQICSIRLSDRTHLSQRRYSMKPLNAESHSRSESWVTRASTLIAPEVEEKGGEVEDFEQLAKKLEDASPLEIMDKALERFGDQIAIAFSGAEDVALIEYARLTGKPFRVFSLDTGRLNPETYRLFDAVEKQYGIRIEYMFPDAVEVQALVRNKGLFSFYEDGHQECCRVRKVRPLRRALKGLKAWITGQRKDQSPGTRSEIPIVQVDPVFEGLDGGVGSLVKWNPLANVEGADVWNFLRTMDVPVNALHAQGYVSIGCEPCTRPVLPGQHEREGRWWWEDAKAKECGLHKGNIKEEDGAADSKPAAVQEIFESNNVVALSKGGVENLLKLENRKEAWLVVLYAPWCPFCQAMEASYIELAEKLAGKGVKVAKFRADGEQKEFAKQELQLGSFPTILLFPKRAPRAIKYPSEHRDVDSLMSFVNLLR
For the molecule B2, the binding result in test [1] is recorded as “binds”.

B3: Ferretin 1 (protein, UniProt Q39101 1-255)
chain: MASNALSSFTAANPALSPKPLLPHGSASPSVSLGFSRKVGGGRAVVVAAATVDTNNMPMTGVVFQPFEEVKKADLAIPITSHASLARQRFADASEAVINEQINVEYNVSYVYHSMYAYFDRDNVAMKGLAKFFKESSEEERGHAEKFMEYQNQRGGRVKLHPIVSPISEFEHAEKGDALYAMELALSLEKLTNEKLLNVHKVASENNDPQLADFVESEFLGEQIEAIKKISDYITQLRMIGKGHGVWHFDQMLLN
Turning to B3, in test [2], the binding result is listed as “binds”.

B4: Photosystem II subunit T (protein, UniProt Q39195 1-103)
chain: MASMTMTATFFPAVAKVPSATGGRRLSVVRASTSDNTPSLEVKEQSSTTMRRDLMFTAAAAAVCSLAKVAMAEEEEPKRGTEAAKKKYAQVCVTMPTAKICRY
As to B4, in test [1], the binding entry is recorded as “binds”.

B5: CCR-like protein (protein, UniProt Q96500 1-141)
chain: MQGALFIKPTILLPLPSSVSSPKLTFLLPHATKASRLSSLRSNNSSSSSSLTSDPNTVDYNSSILSVFPAEACEVISGYACSADIYPEVKLDTKPVSRPVASEPVDREYEEYNSPKTVFREEACDDLGGEFCEPDFQKDAN
Regarding B5, the binding entry in test [1] is reported as “binds”.

B6: NADH dehydrogenase (ubiquinone) 1 alpha−subcomplex 5 (protein, UniProt Q9FLX7 1-169)
chain: MFLRAIGRPLLAKVKQTTGIVGLDVVPNARAVLIDLYSKTLKEIQAVPEDEGYRKAVESFTRQRLNVCKEEEDWEMIEKRLGCGQVEELIEEARDELTLIGKMIEWDPWGVPDDYECEVIENDAPIPKHVPQHRPGPLPEQFYKTLEGLIAESKTEIPAATPSDPQLKE
B6: in test [1], the binding result is listed as “binds”.

B7: Putative 3-dehydroquinate synthase (protein, UniProt Q8VYV7 1-442)
chain: MAANTISLSNVAASKNLNSFQSRAFIAPPTIFFPVASAKSKPGELSLSSTTLSRSRVRAGASQLMNEPLNDQRSISSPTVVEVDLGDRSYPIYIGAGLLDHSELLQRHVHGKRVLVVTNDRVAPLYLDKTIDALTRGNPNVTVESVILPDGEKYKDMDTLMKVFDKAIESRLDRRCTFVALGGGVIGDMCGYAAASYLRGVNFIQIPTTVMAQVDSSVGGKTGINHRLGKNLIGAFYQPQCVLVDTDTLNTLPDREMASGLAEVIKYGLIRDAEFFEWQEKNIEALLARDPAALAFAIKRSCENKADVVSQDEKESGLRATLNLGHTFGHAIETGFGYGEWLHGEAVAAGTVMAVDMSYRLGWIDESIVKRVNKILVRAKLPTTPPESMTVSMFKSIMAVDKKVADGLLRLILLKGPLGNCVFTGDYDREALDATLRAFSKS
Consider B7, for which the binding result in test [1] was “binds”.

B8: Plastid transcriptionally active 4 (protein, UniProt O80796 1-330)
chain: MALKASPVTGLFPPLRPTASSSPSTSSNRPCSLRILPLRTSFFGNSSGALRVNVLRLACDNRLRCNGHGATMNLFERFSRVVKSYANALISSFEDPEKILEQTVIEMNSDLTKMRQATAQVLASQKQLQNKYKAAQQSSDDWYKRAQLALAKGDEDLAREALKRRKSFADNATALKTQLDQQKGVVDNLVSNTRLLESKIQEAKAKKDTLLARARTAKTATKVQEMIGTVNTSGALSAFEKMEEKVMAMESEADALTQIGTDELEGKFQMLETSSVDDDLADLKKELSGSSKKGELPPGRSTVAASTRYPFKDSEIENELNELRRKANDF
For B8, the binding entry in test [1] is recorded as “binds”.

B9: Dehydrin family protein (protein, UniProt Q9SLJ2 1-98)
chain: MAGLINKIGDALHIGGGNKEGEHKKEEEHKKHVDEHKSGEHKEGIVDKIKDKIHGGEGKSHDGEGKSHDGEKKKKKDKKEKKHHDDGHHSSSSDSDSD
As for B9, in test [1], the binding entry is “binds”.

B10: GLNB1-like protein (protein, UniProt Q9ZST4 1-196)
chain: MAASMTKPISITSLGFYSDRKNIAFSDCISICSGFRHSRPSCLDLVTKSPSNNSRVLPVVSAQISSDYIPDSKFYKVEAIVRPWRIQQVSSALLKIGIRGVTVSDVRGFGAQGGSTERHGGSEFSEDKFVAKVKMEIVVKKDQVESVINTIIEGARTGEIGDGKIFVLPVSDVIRVRTGERGEKAEKMTGDMLSPS
Turning to B10, in test [1], the binding entry is “binds”.

B11: Chloroplast chaperonin 10 (protein, UniProt O80504 1-139)
chain: MASTFVCSLPNPFFAFPVKATTPSTANHTLLGSRRGCLRIKAISTKWEPTKVVPQADRVLVRLEDLPIKSSGGVLLPKAAVKFERYLTGEIISVGSEVGQQVGPGKRVLFSDVSAYEVDLGTDARHCFCKESDLLALVE
In the case of B11, in test [2], the binding result is “binds”.

B12: Thioredoxin F-type 1 (protein, UniProt Q9XFH8 1-178)
chain: MPLSLRLSPSPTALSPTTGGFGPSRKQCRIPYSGVPTTKIGFCSLDSRKRGDSSVVRCSLETVNVSVGQVTEVDKDTFWPIVKAAGEKLVVLDMYTQWCGPCKVIAPKYKALSEKYDDVVFLKLDCNPDNRPLAKELGIRVVPTFKILKDNKVVKEVTGAKYDDLVAAIETARSAASG
As for B12, the binding entry in test [2] is “binds”.

B13: Ferredoxin-thioredoxin reductase subunit A (protein, UniProt Q9SJ89 1-146)
chain: MNLQAVSCSFGFLSSPLGVTPRTSFRRFVIRAKTEPSEKSVEIMRKFSEQYARRSGTYFCVDKGVTSVVIKGLAEHKDSYGAPLCPCRHYDDKAAEVGQGFWNCPCVPMRERKECHCMLFLTPDNDFAGKDQTITSDEIKETTANM
On to B13, for which the binding entry in test [1] was “binds”.

B14: AIG2-like avirulence induced gene family protein (protein, UniProt Q9MBH2 1-169)
chain: MTSSDKSLSHDVFVYGSFQEPSVVNLILECSPVMVPAQLHGYHVYRLKGRLHACISPSENGLINGKILTGLTDSQLENLDMIEGSEYVRKTVEVVLTDTSEKKQVETYVWANKDDPNLYGEWDFEEWRRLHMDKFIEASTKFIEWKKNPDGRSREEFEKFVFDDPPTAA
Regarding B14, the binding result in test [1] is recorded as “binds”.

B15: Outer Plastid Envelope Protein 16-1 (protein, UniProt Q9ZV24 1-148)
chain: MPSSTFSGTVSTPKLSVAVDMGNPFLNLTVDAFLKIGAVGVTKSLAEDTYKAIDKGSLSKSTLEHALKKLCKEGVYWGAAGGVYIGTEYGIERIRGSRDWKNAMLAGAATGAVLSAVGKKGKDTIVIDAILGGALATASQFVNNHYFY
B15: the binding entry in test [2] is listed as “binds”.

B16: Photosystem II reaction center PSB28 protein (protein, UniProt Q8W0Y8 1-183)
chain: MACVRSIGSLTSVNHSQRNVPRSGIVLSSCSVLPIKSSSFTGSPVSLPRAQPSSRTALRPMKPVSITMMVKPALQFIQGTDEMTIPDVKLTRSRDGSNGMALFSFDQPSVFDSSGEVGEITGLYMIDEEGVIQSTDVNARFVNGKPEGIVAKHIMRSPKEWDRFMRFMERYSDQNGLQFVKKQ
As for B16, in test [1], the binding result is recorded as “binds”.
